Source: PubChem BioAssay AID743454 (Peter MacCallum Cancer Centre, 2014)
Test: 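Genes whose loss kills vorinostat-resistant colon cancer cells under vorinostat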 (primary screen). Cells: human HCT116-VR colon cancer cells, selected for vorinostat resistance. Knock-down reagent: siRNA pool against human genes, 40 nM siRNA pool. Time to read-out: vorinostat for 24 h, read-out about 72 h after transfection. Treatment: vorinostat at 2.5 µM final. Detection: 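Two measures, CellTiter-Fluor viability and luminescent caspase 3/7 activity, each as fold change against same-plate mock wells, mean of duplicates, then screen-wide robust z-score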. Scale: viability robust z-score: higher = more viable cells than screen typical; caspase robust z-score: higher = more caspase 3/7 activity than screen typical. Hit rule: 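a knock-down is a hit when classed RV1 or RV2 for lowered viability, or CA1 or CA2 for caspase activation; those lethal without drug were dropped; hits were retested singly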.
The deposit covers about 18,000 reagents; below is an unselected part. Of all reagents, 450 (2.5%) were called active. 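Single biological run; no consistent viability z cut-off exists, so the class columns, not z-scores, define the calls.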 Entries without a mark were called inactive.

| Target gene | viability hit class | caspase hit class | viability robust z-score | caspase robust z-score |
| --- | --- | --- | --- | --- |
| DNAJC21 (GeneID 134218) | no change | no change | -0.64 | -0.81 |
| NOCT (GeneID 25819) | no change | no change | -1.49 | -1.6 |
| LRRC8A (GeneID 56262) | no change | no change | -0.12 | -0.48 |
| CBY1 (GeneID 25776) | no change | no change | 1.96 | 0.4 |
| CBLN4 (GeneID 140689) | no change | no change | -0.34 | -0.92 |
| TTC1 (GeneID 7265) | no change | no change | 0.3 | 2.06 |
| TUT7 (GeneID 79670) | no change | no change | -0.24 | -0.02 |
| ELF2 (GeneID 1998) | no change | no change | 0.26 | 0.31 |
| GLS2 (GeneID 27165) | no change | no change | 0.26 | 0.38 |
| KRT10 (GeneID 3858) | no change | no change | 0.46 | 1.24 |
| MBOAT1 (GeneID 154141) | no change | no change | 0.17 | 1.41 |
| NGDN (GeneID 25983) | no change | no change | -1.02 | -0.56 |
| ISG20L2 (GeneID 81875) | no change | no change | -1 | 1.52 |
| RNF19A (GeneID 25897) | no change | no change | -0.22 | -0.82 |
| MLN (GeneID 4295) | no change | no change | -0.14 | 0.28 |
| TRIM62 (GeneID 55223) | no change | no change | 0.46 | 0.28 |
| ANKRD2 (GeneID 26287) | no change | no change | -0.96 | 3.34 |
| PPP2R5B (GeneID 5526) | no change | no change | 0.14 | 0.56 |
| DRC5 (GeneID 202500) | no change | no change | 0.93 | -0.1 |
| EXOSC3 (GeneID 51010) | no change | no change | -0.76 | -0.64 |
| NOMO1 (GeneID 23420) | no change | no change | -1.29 | -0.83 |
| IDUA (GeneID 3425) | no change | no change | -0.98 | 1.28 |
| CSMD1 (GeneID 64478) | no change | no change | 0.29 | 2.21 |
| CFAP263 (GeneID 29070) | no change | no change | -1.09 | 1.97 |
| TCERG1 (GeneID 10915) | no change | no change | -0.44 | 0.62 |
| SLC15A4 (GeneID 121260) | no change | no change | -0.28 | -0.34 |
| RNF122 (GeneID 79845) | RV2 (reduced viability) (active) | no change | -4.22 | 1.41 |
| RP1L1 (GeneID 94137) | no change | no change | -0.57 | -0.52 |
| CHDH (GeneID 55349) | no change | no change | 0.86 | -0.36 |
| FSTL3 (GeneID 10272) | no change | no change | -0.42 | 2.82 |
| MTFR1 (GeneID 9650) | no change | no change | -0.8 | -0.08 |
| TUBB7P (GeneID 56604) | no change | no change | -3.5 | 1.57 |
| ADH7 (GeneID 131) | no change | no change | -0.18 | -0.06 |
| SLC10A2 (GeneID 6555) | no change | no change | -0.28 | 1.03 |
| UCHL1 (GeneID 7345) | no change | no change | 1.31 | 2.24 |
| FCER1G (GeneID 2207) | no change | no change | 0.34 | -0.21 |
| HS6ST3 (GeneID 266722) | no change | no change | -0.04 | -0.42 |
| RUNDC3B (GeneID 154661) | no change | no change | -0.28 | -0.34 |
| SPAST (GeneID 6683) | no change | no change | -0.46 | -1.09 |
| SRPX (GeneID 8406) | no change | no change | 0.93 | -1.33 |
| ROBO4 (GeneID 54538) | no change | no change | 1.13 | 2.12 |
| FBXO33 (GeneID 254170) | no change | no change | -0.08 | -0.43 |
| KLK13 (GeneID 26085) | no change | no change | 0.06 | 2.11 |
| CENATAC (GeneID 338657) | no change | no change | 1.14 | 0.04 |
| CFAP61 (GeneID 26074) | no change | no change | 0.6 | 0.19 |
| LPCAT4 (GeneID 254531) | no change | no change | -0.07 | -0.2 |
| SLC6A12 (GeneID 6539) | no change | no change | -0.02 | -0.45 |
| TMEM132D (GeneID 121256) | no change | no change | -0.07 | 0.18 |
| RMI1 (GeneID 80010) | no change | no change | -0.12 | -0.68 |
| NANS (GeneID 54187) | no change | no change | -2.49 | 1.34 |
| SRARP (GeneID 149563) | no change | no change | 0.47 | -0.48 |
| ABCC10 (GeneID 89845) | no change | no change | 0.44 | 1.99 |
| ZNF451 (GeneID 26036) | no change | no change | -1.4 | 0.2 |
| GPR135 (GeneID 64582) | no change | no change | 1.78 | 0 |
| PAX7 (GeneID 5081) | no change | no change | -0.96 | 0.76 |
| ECRG4 (GeneID 84417) | no change | no change | 0.58 | -0.81 |
| ATP7A (GeneID 538) | no change | no change | -0.82 | -0.68 |

Active calls, of those listed so far:
| Target gene | viability hit class | caspase hit class | viability robust z-score | caspase robust z-score |
| --- | --- | --- | --- | --- |
| RNF122 (GeneID 79845) | RV2 (reduced viability) (active) | no change | -4.22 | 1.41 |
